Results are given in words; binding and its absence hold for the method and conditions named. Some entries that bind do so weakly or less than the wild type.
Legend:
[1] = molecular target: GB1-fused NANOG WT (human) (UniProt Q9H9S0); test: size exclusion chromatography
[2] = molecular target: GB1-fused NANOG WT (human) (UniProt Q9H9S0); test: UV-detected SEC
[3] = molecular target: GB1-fused NANOG WT (human) (UniProt Q9H9S0); test: size exclusion chromatography after co-expression in E. coli

By UniProt entry, the sequences of proteins in these tests, tags left out.
UniProt Q9H9S0: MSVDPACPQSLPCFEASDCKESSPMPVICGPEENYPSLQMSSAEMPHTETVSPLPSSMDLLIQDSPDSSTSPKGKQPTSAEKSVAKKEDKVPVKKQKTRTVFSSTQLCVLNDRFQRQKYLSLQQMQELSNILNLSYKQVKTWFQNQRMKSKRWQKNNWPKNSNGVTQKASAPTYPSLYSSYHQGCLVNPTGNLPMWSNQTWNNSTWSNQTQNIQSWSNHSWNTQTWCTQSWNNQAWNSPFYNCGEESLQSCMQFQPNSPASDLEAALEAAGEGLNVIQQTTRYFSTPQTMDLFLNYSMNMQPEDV

Measured: binding

B1: Skp chaperone (protein, UniProt P0AEU7 21-161, looked up)
chain: ADKIAIVNMGSLFQQVAQKTGVSNTLENEFKGRASELQRMETDLQAKMKKLQSMKAGSDRTKLEKDVMAQRQTFAQKAQAFEQDRARRSNEERGKLVTRIQTAVKSVANSQDIDLVVDANAVAYNSSDVKDITADVLKQVK
binds: all assays above
